Measurements from paper PMC9962925, “PKD autoinhibition in trans regulates activation loop autophosphorylation in cis” (Proceedings of the National Academy of Sciences of the …, 2023).
Numbering of substitutions follows the chain as printed. Numbers in names are those of the source. No constants are given. Whether binding was seen depends on the method and setting. Each block holds one binder with its values, some of them ahead of it.

Legend:
[1] = molecular target: PKD1^KD S738E/S742E (human) (UniProt Q15139); assay: SEC-MALS; 60 uL of purified protein at 2 mg/mL on an S200 10/300 column, room temperature, 20 mM HEPES pH 7.4, 150 mM KCl, 1 mM EDTA, 1 mM TCEP, 1% glycerol (Fig. 1H); both purified
[2] = molecular target: PKD1^KD S738E/S742E (human) (UniProt Q15139); assay: SEC; analytical size exclusion chromatography of purified proteins (Fig. 1C); elution volumes calibrated to monomer and dimer masses by SEC-MALS; both purified
PKD1^KD R732M 2E (human) = PKD1^KD R732M 2E (human) (UniProt Q15139); assay: as above
PKD1^KD D706N/2E (human) = PKD1^KD D706N/2E (human) (UniProt Q15139); assay: as above

- binding [1]: no binding (tested: 2 mg/mL injected)
- binding [2]: no binding
B1: PKD1^KD S738E/S742E (domain or fragment, UniProt Q15139 570-890)
chain: QIQENVDISTVYQIFPDEVLGSGQFGIVYGGKHRKTGRDVAIKIIDKLRFPTKQESQLRNEVAILQNLHHPGVVNLECMFETPERVFVVMEKLHGDMLEMILSSEKGRLPEHITKFLITQILVALRHLHFKNIVHCDLKPENVLLASADPFPQVKLCDFGFARIIGEKEFRREVVGTPAYLAPEVLRNKGYNRSLDMWSVGVIIYVSLSGTFPFNEDEDIHDQIQNAAFMYPPNPWKEISHEAIDLINNLLQVKMRKRYSVDKTLSHPWLQDYQTWLDLRELECKIGERYITHESDDLRWEKYAGEQGLQYPTHLINPSAS

- binding (PKD1^KD R732M 2E (human)): no binding
B2: PKD1^KD R732M 2E (domain or fragment, UniProt Q15139 570-890)
chain: B1 chain with R163M

- binding (PKD1^KD D706N/2E (human)): no binding
B3: PKD1^KD D706N/2E (domain or fragment, UniProt Q15139 570-890)
chain: B1 chain with D137N
